In PubChem BioAssay AID504834 (National Center for Advancing Translational Sciences (NCATS), 2011):
Among all 320,000 compounds or so, about 22,000 (6.9%) were called active. The inconclusive results got no clear call from the source; some entries with a clear call stand among them for comparison. The call rests on the fitted dose curve; in most records, active means well fitted inhibition curve with a large enough effect; inconclusive means small, poorly fitted or top-dose-only effect, or another doubt; inactive means no such curve, though single readings can be large or run the other way. Potencies beside an inconclusive call are fits to weak or partial responses and may not hold up.

Test: Primary qHTS for delayed death inhibitors of the malarial parasite plastid, 96 hour incubation
Conditions: P. falciparum luciferase reporter growth; series mostly up to 28.7 µM; activity change, negative = inhibition: at the top concentration
In short: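 Infected RBCs, 2% Hct / 0.05% parasitemia final; luciferase-reporter P. falciparum; cpd 96 h, 37 C, 5% CO2; luciferase detection reagent; luminescence.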
On the % scale 0 is the no-effect control and ±100 the full control effect; potency means the concentration at half of the fitted maximal effect.

Question: With Cc1cccc(C(=O)NCCc2nnc(SCC(=O)Nc3nc(C)cs3)n2C)c1 as the compound, how does the Potency read?
Answer: inconclusive: 18.5 µM [inhibitor, single point]

Question: For COc1ccc(NC(=O)/C=C/c2ccc(C)o2)cc1S(=O)(=O)N1CCOCC1, which “activity change, negative = inhibition” value is on record?
Answer: inactive: -2.72%

Question: With CCOCCCNC(=O)CN1C(=O)/C(=C/c2ccccc2C)Sc2ccccc21 as the compound, how does the Potency read?
Answer: inconclusive: 7.38 µM [inhibitor, partial curve, poor fit]

Question: For CCC(NS(=O)(=O)c1ccc(C)cc1)C(=O)N1CCOCCOCCOCCOCC1 (stereo unspecified), which “activity change, negative = inhibition” value is on record?
Answer: inactive: 47%

Question: For O=C(NCCN1CCCC(O)C1)c1cc(COc2ccc(F)cc2Cl)on1 (stereo unspecified), which Potency is on record?
Answer: inconclusive: 18.5 µM [inhibitor, single point]

Question: For COc1ccc(C2/C=C\CN(S(=O)(=O)c3ccc(-c4ccccc4)cc3)CC(=O)N2Cc2ccc(F)cc2)cc1 (stereo unspecified), which Potency is on record?
Answer: active: 4.65 µM

Question: Which “activity change, negative = inhibition” value does the source give for Cc1c(CCO)c(=O)[nH]n1S(=O)(=O)c1ccc(Cl)cc1Cl here?
Answer: inactive: 30.7%

Question: Which Potency does the source give for COc1ccc(OC)c(NC(=O)c2cccc3c2C(=O)N(C2CCCCC2)C3)c1 here?
Answer: inconclusive: 13.1 µM [inhibitor, partial curve, poor fit]

Question: For COc1ccc2oc(C(=O)NCCN3CCOCC3)c(C)c2c1OC, which “activity change, negative = inhibition” value is on record?
Answer: inactive: 2.59%

Question: Which Potency does the source give for O=C(Nc1ccc2c(c1)OCCO2)c1ccccc1F here?
Answer: inconclusive: 16.5 µM [inhibitor, single point]

Question: For COc1ccc(-[n+]2c(C)cc(/C=C3\Sc4ccccc4N3C)cc2C)cc1, which Potency is on record?
Answer: inconclusive: 0.0026 µM [inhibitor, full curve, poor fit]

Question: With O=C(Nc1ccc2c(c1)CN(Cc1ccco1)CC2)C1CCCO1 (stereo unspecified) as the compound, how does the “activity change, negative = inhibition” value read?
Answer: inactive: 12.1%

Question: With CCOc1ccc(S(=O)(=O)NCCC(=O)N2CC=C(c3ccccc3)CC2)cc1 as the compound, how does the Potency read?
Answer: inconclusive: 10.4 µM [inhibitor, partial curve]

Question: With Fc1ccc(COc2cccc(CNCc3ccncc3)c2)cc1 as the compound, how does the Potency read?
Answer: inconclusive: 9.28 µM [inhibitor, partial curve]

Question: For CCc1ccc(NC(=O)CC2C(=O)NCCN2C(=O)c2ccc(F)cc2)cc1 (stereo unspecified), which “activity change, negative = inhibition” value is on record?
Answer: inactive: 4.89%

Question: Which Potency does the source give for CC1CC(C)(C)NC(=S)N1CCCC(=O)Nc1ccc2c(c1)OCCO2 (stereo unspecified) here?
Answer: inconclusive: 16.5 µM [inhibitor, single point]

Question: For Cc1cc2oc(C(=O)N(Cc3cccs3)C3CCS(=O)(=O)C3)cc(=O)c2cc1Cl (stereo unspecified), which Potency is on record?
Answer: inconclusive: 6.57 µM [inhibitor, partial curve]

Question: With C/C(=C(/CCO)SS/C(CCO)=C(\C)N(C=O)Cc1cnc(C)nc1N)N(C=O)Cc1cnc(C)nc1N as the compound, how does the Potency read?
Answer: inconclusive: 15.1 µM [inhibitor, single point]

Question: With O=c1c2ccc(Cl)cc2nc(-c2cccc(C(F)(F)F)c2)n1O as the compound, how does the Potency read?
Answer: active: 10.4 µM

Question: Which “activity change, negative = inhibition” value does the source give for O=C(N/C(=C/c1ccc(Br)cc1)c1nc2ccccc2[nH]1)c1ccco1 here?
Answer: inactive: -3.48%

Question: For CCc1nc(SCc2cccnc2)c(C#N)cc1C, which Potency is on record?
Answer: inconclusive: 0.928 µM [inhibitor, partial curve, poor fit]

Question: With CCN(C(=O)CSc1nc2c(cnn2-c2ccccc2)c(=O)[nH]1)C1CCS(=O)(=O)C1 (stereo unspecified) as the compound, how does the Potency read?
Answer: inconclusive: 14.7 µM [inhibitor, partial curve, poor fit]

Question: With CC(C)CN1C(=O)C(=O)N(CC(=O)N2CCN(c3ccccc3)CC2)C1=O as the compound, how does the “activity change, negative = inhibition” value read?
Answer: inactive: 7.32%

Question: Which “activity change, negative = inhibition” value does the source give for COc1cccc(C(=O)Nc2nc(SCc3ccc(Cl)cc3)n[nH]2)c1 here?
Answer: inactive: 50.7%

Question: For Cc1ccc(-c2csc3nc(C)n(-n4c(C)ccc4C)c(=O)c23)o1, which Potency is on record?
Answer: inconclusive: 10.4 µM [inhibitor, partial curve, poor fit]

Question: Which “activity change, negative = inhibition” value does the source give for CCOc1ccc(S(=O)(=O)NCCC(=O)NCC(C)(C)N2CCOCC2)cc1 here?
Answer: inactive: 20.6%

Question: For CCOC(=O)c1nc(C)n(-c2cc(OC)c(Cl)cc2Cl)n1, which “activity change, negative = inhibition” value is on record?
Answer: inactive: 388%

Question: For N#CCc1nc(C(c2ccccc2)c2ccccc2)no1, which Potency is on record?
Answer: inconclusive: 4.15 µM [inhibitor, full curve]

Question: For CCN1C(=O)c2cccc3c(S(=O)(=O)Nc4ccccc4OC)ccc1c23, which “activity change, negative = inhibition” value is on record?
Answer: inactive: 310%

Question: With S=C(NCc1ccco1)Nc1cc(Cl)c(Cl)cc1Cl as the compound, how does the “activity change, negative = inhibition” value read?
Answer: inactive: -19.1%

Question: Which Potency does the source give for Cc1cccc(OCC(O)Cn2c(N3CCCCC3)nc3c2c(=O)n(C)c(=O)n3C)c1 (stereo unspecified) here?
Answer: inconclusive: 13.1 µM [inhibitor, partial curve]

Question: For CCN(CC(=O)Nc1c(F)cccc1F)C(=O)C(C)SCc1nc2sc(C)c(C)c2c(=O)[nH]1 (stereo unspecified), which Potency is on record?
Answer: inconclusive: 9.28 µM [inhibitor, partial curve]

Question: Which Potency does the source give for O=C(N/N=C/c1sc(N2CCOCC2)nc1-c1ccccc1)c1ccccc1F here?
Answer: inconclusive: 13.1 µM [inhibitor, partial curve, poor fit]

Question: For COc1ccc(C(=O)NCc2ccc(N3CCN(C(=O)OC(C)(C)C)CC3)cc2)cc1, which Potency is on record?
Answer: inconclusive: 16.5 µM [inhibitor, partial curve, poor fit]

Question: For c1ccc(-c2nnc(CN3CCC4(CC3)OCCO4)o2)cc1, which Potency is on record?
Answer: inconclusive: 11.7 µM [inhibitor, partial curve]

Question: With CC(C)(C)OC(=O)NCCCCCNC(=O)c1nc[nH]c1C(=O)NCc1ccccc1 as the compound, how does the Potency read?
Answer: inconclusive: 5.86 µM [inhibitor, partial curve, poor fit]

Question: Which “activity change, negative = inhibition” value does the source give for COCCNC(=S)N/N=C(\C)c1ccc(OC)cc1 here?
Answer: inactive: -10.3%

Question: For CCc1ccc(N2CC34C=CC(O3)C(C(=O)OC)C4C2=O)cc1 (stereo unspecified), which Potency is on record?
Answer: inconclusive: 2.08 µM [inhibitor, partial curve, poor fit]

Question: For CCN1CCN(C(c2ccc(OC)cc2)C(O)C(=O)c2c[nH]c3ccccc23)CC1 (stereo unspecified), which Potency is on record?
Answer: inconclusive: 18.5 µM [inhibitor, single point]

Question: For CCCCN1CC2=C(C1=O)C(c1ccc(O)cc1)NC(=O)N2C (stereo unspecified), which “activity change, negative = inhibition” value is on record?
Answer: inactive: -46.3%

Question: With CC(=O)Nc1ccc(S(=O)(=O)N(C)CC(=O)Nc2nc3ccccc3[nH]2)cc1 as the compound, how does the “activity change, negative = inhibition” value read?
Answer: inactive: -23.3%

Question: With Cc1nn(-c2ccc(F)cc2)c(Cl)c1/C=N/NC(=O)c1cccc(S(=O)(=O)N2CCCC2)c1 as the compound, how does the Potency read?
Answer: inconclusive: 1.65 µM [inhibitor, full curve]

Question: With Cc1ccc(OCc2nnnn2-c2ccccc2)cc1 as the compound, how does the Potency read?
Answer: inconclusive: 18.5 µM [inhibitor, single point]

Question: With CCCCC(=O)Nc1cnc(NC(=O)c2cccs2)cc1C as the compound, how does the “activity change, negative = inhibition” value read?
Answer: inactive: 8.94%

Question: Which “activity change, negative = inhibition” value does the source give for C/C(N)=C(/C#N)C(=O)CSc1nc2ccccc2n1CC(C)C here?
Answer: inactive: -29.2%

Question: For O=C(Nc1cccc(Cl)c1N1CCCC1)c1cccc(-c2cc3ccccc3oc2=O)c1, which “activity change, negative = inhibition” value is on record?
Answer: inactive: 54.8%

Question: For COc1ccccc1NS(=O)(=O)c1ccc(NC(=O)c2ccccn2)cc1, which Potency is on record?
Answer: inconclusive: 2.62 µM [inhibitor, full curve]

Question: For CC(=O)/C=C/c1ccc(C)o1, which Potency is on record?
Answer: inconclusive: 9.28 µM [inhibitor, partial curve]

Question: Which Potency does the source give for O=[N+]([O-])c1cccc(-c2cn3nc(-c4ccccc4)c(-c4ccccc4)nc3n2)c1 here?
Answer: inconclusive: 13.1 µM [inhibitor, single point]

Question: Which Potency does the source give for Cc1ccc(C)c(S(=O)(=O)NCCOc2nc(NC(C)C)nc(NC(C)C)n2)c1 here?
Answer: inconclusive: 18.5 µM [inhibitor, single point]

Question: With COc1ccc(-c2nc(CSCC(=O)N3CCc4ccccc4C3)c(C)o2)cc1OC as the compound, how does the Potency read?
Answer: inconclusive: 13.1 µM [inhibitor, partial curve, poor fit]

Question: For COc1cccc(C(=O)NCC(c2ccco2)N2CCOCC2)c1 (stereo unspecified), which “activity change, negative = inhibition” value is on record?
Answer: inactive: -0.741%

Question: With O=C(NC(=S)Nc1ccc(CN2CCOCC2)cc1)c1ccco1 as the compound, how does the “activity change, negative = inhibition” value read?
Answer: inactive: 93.1%

Question: Which “activity change, negative = inhibition” value does the source give for Cc1ccc(NC(=O)CN2C(=O)c3ccccc3S2(=O)=O)cc1C here?
Answer: inactive: -5.74%

Question: For O=C(CCc1ccccc1)N/N=C/c1cccc([N+](=O)[O-])c1, which Potency is on record?
Answer: inconclusive: 10.4 µM [inhibitor, single point]

Question: With CCCCCn1c(-c2ccco2)nc2nc3ccccc3nc21 as the compound, how does the Potency read?
Answer: inconclusive: 13.1 µM [inhibitor, partial curve]

Question: With CCOC(=O)Nc1ccc2c(C)cc(=O)oc2c1 as the compound, how does the Potency read?
Answer: inconclusive: 13.1 µM [inhibitor, single point]

Question: With CCCCNC(=O)c1ccc2c(=O)n(CCCOCC)c(=S)[nH]c2c1 as the compound, how does the “activity change, negative = inhibition” value read?
Answer: inactive: 40.5%

Question: With Cc1onc(-c2ccccc2Cl)c1C(=O)NCC(=O)O as the compound, how does the Potency read?
Answer: inconclusive: 13.1 µM [inhibitor, single point]

Question: Which Potency does the source give for COC(=O)/C(=N/Nc1ccccc1C)Sc1nnc(C(O)c2ccccc2)n1-c1ccccc1 (stereo unspecified) here?
Answer: inconclusive: 0.037 µM [inhibitor, partial curve, poor fit]

Question: Which Potency does the source give for CCOc1ccc(N(CC(=O)NCC2CCCO2)C(=O)CCC(=O)Nc2ccccn2)cc1 (stereo unspecified) here?
Answer: inconclusive: 5.86 µM [inhibitor, single point]

Question: For Cn1c(=O)n(Cc2ccc(Cl)cc2)c(=O)c2c1nc1n2CCN1Cc1ccco1, which Potency is on record?
Answer: active: 13.1 µM

Question: For Cc1ccc(NC(=O)COC(=O)CNC(=O)c2ccc(C)s2)cc1, which “activity change, negative = inhibition” value is on record?
Answer: inactive: 14.9%

Question: With CN(CC(=O)NC1CCCCC1)S(=O)(=O)c1ccc2c(c1)c(=O)n(C)c(=O)n2C as the compound, how does the “activity change, negative = inhibition” value read?
Answer: inactive: 9.69%

Question: For Cc1sc[n+](CC(=O)c2ccc(Br)cc2)c1C, which “activity change, negative = inhibition” value is on record?
Answer: inactive: 7.97%

Question: For [O-]c1ccccc1-[n+]1c(-c2ccccc2)cc(-c2ccccc2)cc1-c1ccccc1, which Potency is on record?
Answer: active: 0.329 µM

Question: For OCCC1CN(CCCc2ccccc2)CCN1Cc1ccc(F)cc1 (stereo unspecified), which Potency is on record?
Answer: inconclusive: 4.15 µM [inhibitor, partial curve, poor fit]

Question: For Cn1nnnc1SCC(=O)NCc1cc([N+](=O)[O-])ccc1O, which Potency is on record?
Answer: inconclusive: 18.5 µM [inhibitor, single point]

Question: Which Potency does the source give for O=C(c1cnccn1)N(Cc1ccco1)C1(C(=O)NC2CCCCC2)CCCCC1 here?
Answer: inconclusive: 16.5 µM [inhibitor, single point]

Question: For Cc1ccc(/C(N)=N/OC(=O)COc2ccccc2Cl)cc1, which “activity change, negative = inhibition” value is on record?
Answer: inactive: 58.4%

Question: Which Potency does the source give for N#C/C(=C\c1ccccc1OCc1ccc(C(=O)O)cc1)c1ccccc1 here?
Answer: inconclusive: 10.4 µM [inhibitor, single point]
